Assay results: PubChem BioAssay AID2551 (National Center for Advancing Translational Sciences (NCATS), 2010)
The whole screen tested about 310,000 compounds, of which about 17,000 (5.5%) were called active. This list was built around the results that the source calls inconclusive (neither active nor inactive); the mix of calls is not that of the screen. Calls come from the whole dose curve; as a rule, active = well fitted inhibition curve with a large enough effect; inconclusive = small, poorly fitted or top-dose-only effect, or effect the other way; inactive = no such curve, though single readings can be large or run the other way. A potency beside an inconclusive call is a rough fit, not a confirmed value.

Protein sequences, listed by entry. Tags and fused reporters are not part of them. Lines headed by an entry give the natural chain unless they say otherwise; changes in a name come on top.
UniProt P51450: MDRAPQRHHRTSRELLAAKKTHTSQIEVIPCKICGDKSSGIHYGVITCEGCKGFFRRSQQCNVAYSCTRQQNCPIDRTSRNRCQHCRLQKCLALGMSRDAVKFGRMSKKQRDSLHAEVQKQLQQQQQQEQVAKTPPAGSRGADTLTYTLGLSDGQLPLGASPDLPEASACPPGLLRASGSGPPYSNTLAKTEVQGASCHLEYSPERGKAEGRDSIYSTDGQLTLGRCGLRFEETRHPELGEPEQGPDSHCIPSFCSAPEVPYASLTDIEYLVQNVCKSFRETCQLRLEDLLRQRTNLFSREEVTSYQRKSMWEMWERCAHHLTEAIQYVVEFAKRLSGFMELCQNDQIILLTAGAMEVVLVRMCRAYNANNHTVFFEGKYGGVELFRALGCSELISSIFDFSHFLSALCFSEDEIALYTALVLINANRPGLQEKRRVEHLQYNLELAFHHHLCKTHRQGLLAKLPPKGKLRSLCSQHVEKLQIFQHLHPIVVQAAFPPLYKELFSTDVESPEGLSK

Each molecule was assayed against Nuclear receptor ROR-gamma (Mus musculus) (UniProt P51450) (assay: qHTS for inhibitors of ROR gamma transcriptional activity). Settings: Drosophila S2 Gal4-RORgamma UAS-luciferase reporter, 20 h; series mostly up to 53.6 µM.
Method in brief: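 Using a luciferase readout, inhibitors were identified by reduced reporter activity in Drosophila cells coexpressing a copper-inducible Gal4–ROR gamma fusion and UAS-driven Photinus luciferase, incubated 20 hr after 700 uM copper sulfate.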
Note: nearly all actives have a fitted effect of over 60% in size.
Potency is the fitted concentration of half-maximal effect.

Potency, inactive:
COc1ccc2nc(N)sc2c1
Cc1ccc(NC(=O)CN(C)C(=O)COc2cccc3cccnc23)cc1
CCC(C(=O)N1CCOCC1)n1nc(C)c2c(C)n(-c3ccccc3)nc2c1=O (configuration not stated)
CCOc1cc(CN2CCCCC2)ccc1OC

Potency, active:
NNc1ncnc2c1cnn2-c1ccccc1 11.2 µM
Cc1ccc(NC(=O)c2ccc3ncsc3c2)cc1S(=O)(=O)N(C)C 7.94 µM
S=c1nc(C2CCCCC2)[nH]c2ccccc12 0.631 µM
CC(=O)Nc1cccc(/C(C)=N/NC(=O)c2ccc(O)cc2)c1 11.2 µM
O=S(=O)(Cc1cc(N2CCOCC2)nc(-c2ccccn2)n1)c1ccccc1 15.8 µM
COc1ccc(-c2nnc(NC(=O)c3ccccc3C)o2)cc1 0.631 µM
CCOc1cccc(-c2c(C(=O)N/N=C/c3ccc(C)s3)nnn2-c2nonc2N)c1 2.51 µM

Potency, inconclusive:
O=C(CCn1c2c(c3ccccc31)CCCC2)NNC(=O)c1ccc(Cl)c([N+](=O)[O-])c1 2 µM [activator, partial curve]
COc1cc(C(=O)NCc2cccc3ccccc23)cc(Cl)c1OC 12.6 µM [activator, single point]
Cc1cc(NC(=O)NC2(C(F)(F)F)Oc3ccc(Cl)cc3O2)no1 (configuration not stated) 0.0282 µM [inhibitor, full curve, poor fit]
CCCn1nc(Oc2nc(NCC)nc(NCC)n2)ccc1=O 10 µM [inhibitor, partial curve]
CC(C)C(=O)Nc1sc2c(c1C#N)CCCCC2 0.794 µM [activator, full curve]
CCC1CCCCN1CCCNC(=O)CCC(=O)N1CCOc2ccccc21 (configuration not stated) 0.199 µM [inhibitor, full curve, poor fit]
Cc1cccc(C)c1OCC(O)Cn1c2ccccc2c2ccccc21 (configuration not stated) 35.5 µM [activator, single point]
CC(=O)Nc1c(C)ccc2nsnc12 14.1 µM [activator, single point]
Cc1ccccc1Nc1c([N+](=O)[O-])cncc1[N+](=O)[O-] 22.4 µM [inhibitor, partial curve, poor fit]
CCOc1cc(/C=C/C(=O)Nc2ccc(C(=O)NCCN(CC)CC)cc2)ccc1OCC(C)C 20 µM [inhibitor, single point]
CCOc1ccc(-n2c(=O)[nH]c3sc4c(c3c2=O)CCCC4)cc1 25.1 µM [activator, single point]

3 entries from above, ordered by heavy-atom count, rising.
Potency, inconclusive:
CC(C)C(=O)Nc1sc2c(c1C#N)CCCCC2 0.794 µM [activator, full curve]
CCOc1ccc(-n2c(=O)[nH]c3sc4c(c3c2=O)CCCC4)cc1 25.1 µM [activator, single point]
Cc1cccc(C)c1OCC(O)Cn1c2ccccc2c2ccccc21 (configuration not stated) 35.5 µM [activator, single point]
